# Results as given in the supplement of paper PMC6411743.
# ± gives the standard deviation of the averaged measurements. This is a selection; strong and weak results do not stand in their true shares.
# Assays:
# Assay in all cases: NP40-soluble protein abundance relative to vehicle (solubility fold change) (ratio); higher = more soluble protein in presence of AMP-PNP
# [1] = target: T1, E5RIS3 and related entries (UniProt Q8TCF1)
# T1 sequence (whole entry): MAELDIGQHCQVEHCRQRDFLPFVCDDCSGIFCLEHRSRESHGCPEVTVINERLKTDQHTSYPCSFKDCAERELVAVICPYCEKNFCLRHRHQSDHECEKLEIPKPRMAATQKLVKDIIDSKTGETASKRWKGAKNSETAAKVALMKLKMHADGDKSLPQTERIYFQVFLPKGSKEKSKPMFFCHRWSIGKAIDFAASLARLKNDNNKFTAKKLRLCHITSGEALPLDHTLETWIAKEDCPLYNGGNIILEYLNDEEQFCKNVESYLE
# Method in brief: (§1)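 Values are fold changes against the detergent-processed vehicle, based on vsn-normalised intensities. Jurkat crude lysate was treated at eight concentrations from 0.1 to 10 mM (10 min at room temperature, then 3 min at 37 °C), solubilised with 0.8% NP40 and benzonase, ultracentrifuged and analysed by TMT-labelled LC-MS/MS over three independent experiments.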
# [2] = target: T2, E7EMK3 and related entries (UniProt Q14254)
# T2 sequence (whole entry): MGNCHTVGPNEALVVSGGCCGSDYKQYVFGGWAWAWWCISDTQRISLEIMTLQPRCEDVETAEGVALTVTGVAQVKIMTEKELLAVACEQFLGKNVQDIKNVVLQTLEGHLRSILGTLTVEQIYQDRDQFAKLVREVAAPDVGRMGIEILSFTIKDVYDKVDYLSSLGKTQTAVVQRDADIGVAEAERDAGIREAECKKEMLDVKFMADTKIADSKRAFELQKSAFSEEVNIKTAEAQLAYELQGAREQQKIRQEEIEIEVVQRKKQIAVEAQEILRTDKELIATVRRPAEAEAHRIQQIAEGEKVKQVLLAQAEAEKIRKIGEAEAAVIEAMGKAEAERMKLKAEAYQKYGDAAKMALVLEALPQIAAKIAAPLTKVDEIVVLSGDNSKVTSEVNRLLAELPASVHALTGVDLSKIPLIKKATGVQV
# Method in brief: as §1
# [3] = target: T3, E7EQU1 and related entries (UniProt O15347)
# T3 sequence (whole entry): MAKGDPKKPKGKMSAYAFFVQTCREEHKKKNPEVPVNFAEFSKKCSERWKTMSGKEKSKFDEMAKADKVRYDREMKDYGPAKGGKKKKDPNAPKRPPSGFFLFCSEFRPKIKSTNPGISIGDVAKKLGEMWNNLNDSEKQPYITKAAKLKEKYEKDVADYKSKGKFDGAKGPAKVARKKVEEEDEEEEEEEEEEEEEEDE
# Method in brief: as §1
# [4] = target: T4, E7EUY3 and related entries (UniProt P05166)
# T4 sequence (whole entry): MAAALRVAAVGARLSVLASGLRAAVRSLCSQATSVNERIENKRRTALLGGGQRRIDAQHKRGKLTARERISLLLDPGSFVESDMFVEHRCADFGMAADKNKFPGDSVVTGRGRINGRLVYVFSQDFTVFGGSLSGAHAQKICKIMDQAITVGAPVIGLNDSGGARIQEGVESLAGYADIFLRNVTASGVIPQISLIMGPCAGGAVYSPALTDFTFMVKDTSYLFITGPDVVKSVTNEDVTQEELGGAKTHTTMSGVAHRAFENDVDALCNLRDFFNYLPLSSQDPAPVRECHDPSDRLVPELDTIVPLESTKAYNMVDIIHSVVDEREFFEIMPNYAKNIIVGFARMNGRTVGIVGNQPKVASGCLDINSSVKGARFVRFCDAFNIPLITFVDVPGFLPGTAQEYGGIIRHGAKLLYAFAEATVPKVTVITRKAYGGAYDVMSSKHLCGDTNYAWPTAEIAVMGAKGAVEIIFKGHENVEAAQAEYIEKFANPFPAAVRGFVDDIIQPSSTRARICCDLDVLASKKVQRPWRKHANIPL
# Method in brief: as §1
# [5] = target: T5, E9PCW1 and related entries (UniProt O95249)
# T5 sequence (whole entry): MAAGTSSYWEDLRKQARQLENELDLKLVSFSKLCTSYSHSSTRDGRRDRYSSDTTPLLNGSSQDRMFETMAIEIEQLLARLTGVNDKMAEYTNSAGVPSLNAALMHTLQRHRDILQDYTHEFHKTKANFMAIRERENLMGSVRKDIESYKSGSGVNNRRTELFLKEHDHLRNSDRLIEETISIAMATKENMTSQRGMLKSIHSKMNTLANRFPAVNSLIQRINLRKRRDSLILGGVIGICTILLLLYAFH
# Method in brief: as §1
# [6] = target: T6, E9PH99 and related entries (UniProt Q9Y4E5)
# T6 sequence (whole entry): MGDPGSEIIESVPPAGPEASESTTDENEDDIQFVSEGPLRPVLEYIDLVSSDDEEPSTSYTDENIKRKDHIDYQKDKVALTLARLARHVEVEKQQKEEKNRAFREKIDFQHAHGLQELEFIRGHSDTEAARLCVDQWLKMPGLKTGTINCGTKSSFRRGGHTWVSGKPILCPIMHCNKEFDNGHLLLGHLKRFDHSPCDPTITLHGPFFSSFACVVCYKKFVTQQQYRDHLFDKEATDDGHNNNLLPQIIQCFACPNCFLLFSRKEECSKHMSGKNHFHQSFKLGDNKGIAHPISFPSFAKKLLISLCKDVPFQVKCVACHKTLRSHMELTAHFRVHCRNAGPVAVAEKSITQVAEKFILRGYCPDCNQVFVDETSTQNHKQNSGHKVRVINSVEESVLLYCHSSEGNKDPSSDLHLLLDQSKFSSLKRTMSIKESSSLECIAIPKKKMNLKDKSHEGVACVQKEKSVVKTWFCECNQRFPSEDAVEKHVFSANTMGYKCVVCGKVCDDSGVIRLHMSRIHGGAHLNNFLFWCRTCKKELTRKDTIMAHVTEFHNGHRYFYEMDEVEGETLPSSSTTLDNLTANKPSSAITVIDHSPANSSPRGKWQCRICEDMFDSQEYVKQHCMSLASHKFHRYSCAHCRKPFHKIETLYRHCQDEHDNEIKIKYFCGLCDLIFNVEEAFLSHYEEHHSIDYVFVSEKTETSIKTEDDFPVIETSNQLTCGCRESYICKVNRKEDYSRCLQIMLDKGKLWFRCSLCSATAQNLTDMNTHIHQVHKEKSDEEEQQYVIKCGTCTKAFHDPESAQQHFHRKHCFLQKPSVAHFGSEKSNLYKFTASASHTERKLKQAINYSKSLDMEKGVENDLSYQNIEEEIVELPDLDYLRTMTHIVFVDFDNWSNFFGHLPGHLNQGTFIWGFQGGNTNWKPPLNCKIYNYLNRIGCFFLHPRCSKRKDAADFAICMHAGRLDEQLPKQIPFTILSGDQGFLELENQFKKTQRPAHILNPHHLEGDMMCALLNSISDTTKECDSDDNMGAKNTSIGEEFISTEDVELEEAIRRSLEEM
# Method in brief: as §1
# [7] = target: T7, E9PIV2 and related entries (UniProt P24001)
# T7 sequence (whole entry): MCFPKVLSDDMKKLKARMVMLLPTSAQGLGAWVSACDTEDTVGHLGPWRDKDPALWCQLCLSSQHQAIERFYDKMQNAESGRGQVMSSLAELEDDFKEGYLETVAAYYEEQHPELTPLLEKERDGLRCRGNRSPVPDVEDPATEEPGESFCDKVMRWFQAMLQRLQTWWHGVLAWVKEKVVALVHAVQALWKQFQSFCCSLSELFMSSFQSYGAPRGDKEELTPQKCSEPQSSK
# Method in brief: as §1
structure (smiles),measurement,setting,value
Nc1ncnc2c1ncn2[C@@H]1O[C@H](COP(=O)(O)OP(=O)(O)NP(=O)(O)O)[C@@H](O)[C@H]1O [adenylyl imidodiphosphate],NP40-soluble protein abundance,[1]; concentration: 1mM,1 ± 0.044
same,NP40-soluble protein abundance,[1]; concentration: 2mM,1.03 ± 0.048
same,NP40-soluble protein abundance,[1]; concentration: 4mM,0.995 ± 0.041
same,NP40-soluble protein abundance,[1]; concentration: 6mM,0.996 ± 0.017
same,NP40-soluble protein abundance,[1]; concentration: 8mM,0.967 ± 0.031
same,NP40-soluble protein abundance,[1]; concentration: 10mM,0.995 ± 0.049
same,NP40-soluble protein abundance,[2]; concentration: 1mM,1.02 ± 0.12
same,NP40-soluble protein abundance,[2]; concentration: 2mM,0.981 ± 0.09
same,NP40-soluble protein abundance,[2]; concentration: 4mM,0.985 ± 0.12
same,NP40-soluble protein abundance,[2]; concentration: 6mM,0.98 ± 0.14
same,NP40-soluble protein abundance,[2]; concentration: 8mM,0.953 ± 0.1
same,NP40-soluble protein abundance,[2]; concentration: 10mM,0.956 ± 0.11
same,NP40-soluble protein abundance,[3]; concentration: 1mM,1.06 ± 0.11
same,NP40-soluble protein abundance,[3]; concentration: 2mM,1.15 ± 0.06
same,NP40-soluble protein abundance,[3]; concentration: 4mM,1.01 ± 0.085
same,NP40-soluble protein abundance,[3]; concentration: 6mM,1.08 ± 0.065
same,NP40-soluble protein abundance,[3]; concentration: 8mM,1.08 ± 0.048
same,NP40-soluble protein abundance,[3]; concentration: 10mM,1.1 ± 0.09
same,NP40-soluble protein abundance,[4]; concentration: 1mM,0.966 ± 0.022
same,NP40-soluble protein abundance,[4]; concentration: 2mM,0.982 ± 0.048
same,NP40-soluble protein abundance,[4]; concentration: 4mM,0.966 ± 0.032
same,NP40-soluble protein abundance,[4]; concentration: 6mM,0.946 ± 0.041
same,NP40-soluble protein abundance,[4]; concentration: 8mM,0.936 ± 0.051
same,NP40-soluble protein abundance,[4]; concentration: 10mM,0.949 ± 0.059
same,NP40-soluble protein abundance,[5]; concentration: 1mM,0.991 ± 0.024
same,NP40-soluble protein abundance,[5]; concentration: 2mM,1.01 ± 0.034
same,NP40-soluble protein abundance,[5]; concentration: 4mM,0.975 ± 0.014
same,NP40-soluble protein abundance,[5]; concentration: 6mM,0.987 ± 0.015
same,NP40-soluble protein abundance,[5]; concentration: 8mM,0.98 ± 0.023
same,NP40-soluble protein abundance,[5]; concentration: 10mM,0.971 ± 0.031
same,NP40-soluble protein abundance,[6]; concentration: 1mM,1.06 ± 0.013
same,NP40-soluble protein abundance,[6]; concentration: 2mM,1.03 ± 0.025
same,NP40-soluble protein abundance,[6]; concentration: 4mM,1.04 ± 0.029
same,NP40-soluble protein abundance,[6]; concentration: 6mM,1.01 ± 0.026
same,NP40-soluble protein abundance,[6]; concentration: 8mM,1.03 ± 0.017
same,NP40-soluble protein abundance,[6]; concentration: 10mM,1.01 ± 0.014
same,NP40-soluble protein abundance,[7]; concentration: 1mM,0.987 ± 0.015
same,NP40-soluble protein abundance,[7]; concentration: 2mM,1.01 ± 0.034
same,NP40-soluble protein abundance,[7]; concentration: 4mM,0.964 ± 0.01

# 3 entries picked at random from those above, as already listed:
structure (smiles),measurement,setting,value
Nc1ncnc2c1ncn2[C@@H]1O[C@H](COP(=O)(O)OP(=O)(O)NP(=O)(O)O)[C@@H](O)[C@H]1O [adenylyl imidodiphosphate],NP40-soluble protein abundance,[4]; concentration: 8mM,0.936 ± 0.051
same,NP40-soluble protein abundance,[4]; concentration: 10mM,0.949 ± 0.059
same,NP40-soluble protein abundance,[6]; concentration: 6mM,1.01 ± 0.026
